Measurements reported in PubChem BioAssay AID1224828 (NIAID, 2016).

Purpose: 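Find genes required for NF-kappaB p65 moving into the nucleus after LPS in mouse macrophages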 (primary screen)
Cells: mouse RAW264.7 G9 macrophage reporter cells (GFP-p65, Tnf promoter-mCherry)
Reagents: siRNA pool against mouse genes, 100 nM
Time to read-out: 2 days siRNA transfection, then 40 min LPS before fixation
Treatment: LPS (Salmonella minnesota R595) at 10 ng/ml
Measurement: 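Imaged p65 nuclear translocation ratio, normalised to the plate median, converted to robust z-scores and averaged across two replicates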
Reading the numbers: p65 translocation robust z-score: higher = more nuclear NF-kappaB p65 after LPS than the plate median; nuclear/cytoplasmic p65 ratio: higher = more nuclear NF-kappaB p65
Active means: 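Called active when z exceeds 3.3 or falls under -1.56 (median of Tlr4 controls), giving activity score of at least 50; no calls for control wells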
Meaning of the calls: active = hit (p65 shift raised or lowered); inactive = no clear change
Shown is a random part of about 17,000 reagents tested. Over the whole deposit, 762 (4.5%) got an active call. 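Active calls include both raised and lowered p65 entry, mostly lowered; wells with fewer than 50 cells lack a z-score.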 The raw values are shown without normalisation.

target	p65 translocation robust z-score	nuclear/cytoplasmic p65 ratio, rep 1	nuclear/cytoplasmic p65 ratio, rep 2	low cell count flag	outcome
2810407A14Rik (RIKEN cDNA 2810407A14 gene)	1.48	1.33	1.66	enough cells to score	inactive
Spire2 (spire type actin nucleation factor 2)	-0.53	1.32	1.2	enough cells to score	inactive
Olfm2 (olfactomedin 2)		1.55	1.99	fewer than 50 cells per well; well left out of scoring	inactive
Ooep (oocyte expressed protein)		1.48	1.43	fewer than 50 cells per well; well left out of scoring	inactive
Fam53c (family with sequence similarity 53, member C)		0	1.85	fewer than 50 cells per well; well left out of scoring	inactive
Or6d12 (olfactory receptor family 6 subfamily D member 12)		1.22	1.32	fewer than 50 cells per well; well left out of scoring	inactive
Apom (apolipoprotein M)	-0.58	1.54	1.53	enough cells to score	inactive
Tmem74b (transmembrane protein 74B)	-0.29	1.49	1.65	enough cells to score	inactive
Or4k2 (olfactory receptor family 4 subfamily K member 2)	-0.85	1.33	1.17	enough cells to score	inactive
Cenpk (centromere protein K)		0.945	1.26	fewer than 50 cells per well; well left out of scoring	inactive
Zfand1 (zinc finger, AN1-type domain 1)		1.34	1.21	fewer than 50 cells per well; well left out of scoring	inactive
Or2l5 (olfactory receptor family 2 subfamily L member 5)	2.53	2.02	1.73	enough cells to score	inactive
Map2k5 (mitogen-activated protein kinase kinase 5)	1.41	1.8	1.64	enough cells to score	inactive
Nck1 (non-catalytic region of tyrosine kinase adaptor protein 1)	-0.88	1.33	1.23	enough cells to score	inactive
Mcoln3 (mucolipin 3)	-1.13	1.27	1.22	enough cells to score	inactive
Prb1a (proline-rich protein BstNI subfamily 1A)	-1.39	1.31	1.38	enough cells to score	inactive
Slc22a13b	-1.11	1.26	1.41	enough cells to score	inactive
Clec2d (C-type lectin domain family 2, member d)	-0.04	1.8	1.44	enough cells to score	inactive
Or5m3 (olfactory receptor family 5 subfamily M member 3)	-0.04	1.74	1.5	enough cells to score	inactive
Ints4 (integrator complex subunit 4)		1.21	1.42	fewer than 50 cells per well; well left out of scoring	inactive
Cabp4 (calcium binding protein 4)	-1.33	1.28	1.56	enough cells to score	inactive
Mtag2 (metastasis associated gene 2)	-0.3	1.87	1.33	enough cells to score	inactive
Myo19 (myosin XIX)	-0.41	1.73	1.52	enough cells to score	inactive
Arsg (arylsulfatase G)	-0.74	1.3	1.33	enough cells to score	inactive

An excerpt taken from the entries so far, as a working copy:
target	p65 translocation robust z-score	nuclear/cytoplasmic p65 ratio, rep 1	nuclear/cytoplasmic p65 ratio, rep 2	low cell count flag	outcome
Ints4 (integrator complex subunit 4)		1.21	1.42	fewer than 50 cells per well; well left out of scoring	inactive
Cabp4 (calcium binding protein 4)	-1.33	1.28	1.56	enough cells to score	inactive
